# Experimental data: PubChem BioAssay AID1224828 (NIAID, 2016)
# Purpose: 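Knock-downs that increase or decrease LPS-induced p65 nuclear translocation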 (primary screen)
# Cells: mouse RAW264.7 G9 macrophage reporter cells (GFP-p65, Tnf promoter-mCherry)
# Reagent: siRNA pool against mouse genes, 100 nM
# Timing: 2 days siRNA transfection, then 40 min LPS before fixation
# Treatment: LPS (Salmonella minnesota R595) at 10 ng/ml
# Measured: 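Microscopy ratio of nuclear to perinuclear-ring GFP-p65 signal, scaled to the plate median; gene score is the average of two replicate robust z-scores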
# Scale: p65 translocation robust z-score: higher = more nuclear NF-kappaB p65 after LPS than the plate median; nuclear/cytoplasmic p65 ratio: higher = more nuclear NF-kappaB p65
# Call rule: 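Called active when z exceeds 3.3 or falls under -1.56 (median of Tlr4 controls), giving activity score of at least 50; no calls for control wells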
# Calls: active = hit (p65 shift raised or lowered); inactive = no clear change
# Here is one part, drawn at random, of about 17,000 reagents tested. 762 of them (4.5%) were called active. 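Active calls include both raised and lowered p65 entry, mostly lowered; wells with fewer than 50 cells lack a z-score.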 The raw values are shown without normalisation. No sequences are given here.
Target gene,p65 translocation robust z-score,"nuclear/cytoplasmic p65 ratio, rep 1","nuclear/cytoplasmic p65 ratio, rep 2",low cell count flag,outcome
Slc18a3,-0.1,1.39,1.25,enough cells to score,inactive
Chchd6 (coiled-coil-helix-coiled-coil-helix domain containing 6),0.23,1.47,1.58,enough cells to score,inactive
Gpi1 (glucose-6-phosphate isomerase 1),-0.19,1.38,1.38,enough cells to score,inactive
Ciapin1 (cytokine induced apoptosis inhibitor 1),,1.28,1.7,fewer than 50 cells per well; well left out of scoring,inactive
Mrps34 (mitochondrial ribosomal protein S34),0.69,1.95,1.64,enough cells to score,inactive
Ssh3 (slingshot protein phosphatase 3),-1.59,1.31,1.34,enough cells to score,active
"Cnn3 (calponin 3, acidic)",0.5,1.63,1.91,enough cells to score,inactive
Fkbp2 (FK506 binding protein 2),0.22,1.49,1.37,enough cells to score,inactive
Vipas39,-0.31,1.52,1.68,enough cells to score,inactive
Or51ag1 (olfactory receptor family 51 subfamily AG member 1),0.74,1.51,1.38,enough cells to score,inactive
Itgb3 (integrin beta 3),-0.64,1.37,1.32,enough cells to score,inactive
Flvcr2 (feline leukemia virus subgroup C cellular receptor 2),0.72,1.68,1.97,enough cells to score,inactive
Erlin2 (ER lipid raft associated 2),-1.38,1.29,1.7,enough cells to score,inactive
Mt4 (metallothionein 4),-1.43,1.49,1.43,enough cells to score,inactive
Khnyn (KH and NYN domain containing),1.17,1.57,1.72,enough cells to score,inactive

Entries listed so far whose gene name begins with C or c (3):
Target gene,p65 translocation robust z-score,"nuclear/cytoplasmic p65 ratio, rep 1","nuclear/cytoplasmic p65 ratio, rep 2",low cell count flag,outcome
Chchd6 (coiled-coil-helix-coiled-coil-helix domain containing 6),0.23,1.47,1.58,enough cells to score,inactive
Ciapin1 (cytokine induced apoptosis inhibitor 1),,1.28,1.7,fewer than 50 cells per well; well left out of scoring,inactive
"Cnn3 (calponin 3, acidic)",0.5,1.63,1.91,enough cells to score,inactive

The list goes on:
Target gene,p65 translocation robust z-score,"nuclear/cytoplasmic p65 ratio, rep 1","nuclear/cytoplasmic p65 ratio, rep 2",low cell count flag,outcome
Tmem223 (transmembrane protein 223),-1.25,1.31,1.31,enough cells to score,inactive
Asf1b (anti-silencing function 1B histone chaperone),-1.56,1.33,1.33,enough cells to score,inactive
Sec61b (SEC61 translocon subunit beta),-0.2,1.36,1.24,enough cells to score,inactive
5830416A07RIK,-0.99,1.32,1.33,enough cells to score,inactive
Drd1 (dopamine receptor D1),-1.21,1.35,1.39,enough cells to score,inactive
Creb3l1 (cAMP responsive element binding protein 3-like 1),-2.06,1.27,1.39,enough cells to score,active
"Prl3a1 (prolactin family 3, subfamily a, member 1)",-0.59,1.29,1.15,enough cells to score,inactive
"Naa60 (N(alpha)-acetyltransferase 60, NatF catalytic subunit)",-0.94,1.28,1.28,enough cells to score,inactive
Gm9517 (predicted gene 9517),,1.21,1.04,fewer than 50 cells per well; well left out of scoring,inactive
